From patent publication US6686394B1, “Aryl-chloro-ethyl ureas” (Sovar, Societe en Commandite, priority 1999, dated 2004) come the findings set out here.

The test system of the data set is HT-29. The experiment in a line: Cytotoxicity assay C50/G50, MTT or resazurin (Example 16). It counts as cell-based, human. How it is done: Cell culture. Tumor cell lines (B16-F0, Caco-2, DU-145, HT-29, MDA-MB-231 and other cell lines described so far in the patent application) were obtained from the American Type Culture Collection (ATCC HTB-26; Bethesda, Md.). Cells were grown in RPMI 1640 medium supplemented with 10% fetal bovine serum (Hyclone, Road Logan, Utah) and were cultured in a humidified atmosphere at 37° C. in 5% CO2.
Drugs: All drugs were dissolved in DMSO and the final concentration of DMSO in the culture medium was maintained at 0.5% (v/v).
Cytotoxiciy assays. At day-1, tumor cells in suspension in 100 μl were plated in microtiter plates (96 wells). On day-0, tumor cells were treated by addition of escalating concentrations of the drug (100 μl solution). On that day, the number of living cells was determined in wells that were untreated. This was performed in order to be able to evaluate the toxic concentration of the drug needed to kill 50% of the cellular population present at the beginning of the experiments. This value is represented by C50 in the table. At day-3, the number of living cells is determined using either MTT or resazurin assays. Growth inhibition activity of these compounds was expressed as the concentration of CAU inhibiting cell growth by 50% G50 in the following table
The MTT assay was as described above in Example 1. The Resazurin assay was performed as follows:
Aspirate the supernatant (cell suspension: centrifuge first)
Add 100 μL NaCl 0.9% (saline)
Add 50 μL RZ (resazurin 125 μg/ml/PBS: RPMI without FBS; 1:4) Incubate at 37° C.
Collect fluorescence data at different time.
The molecule `CCCCCCc1ccc(NC(=O)NC(CCl)CCC)cc1` (racemic) [Example 14] registered a C50/G50 of 1.90. `CCCCCCc1ccc(NC(=O)N[C@H](C)CCl)cc1` [Example 6]: the C50/G50 is listed as 1.38. The value for `CCCCCCc1ccc(NC(=O)N[C@@H](C)CCl)cc1` [Example 7] was 2.51; that for `C[C@@H](CCl)NC(=O)Nc1ccc(C2CCCCC2)cc1` [Example 8] was 1.40; that for `C[C@H](CCl)NC(=O)Nc1ccc(C2CCCCC2)cc1` [Example 9] was 1.48.

Molecule `CCCCCCc1ccc(NC(=O)N[C@H](CC)CCl)cc1` [Example 10] registered a C50/G50 of 1.77. Consider `CCCCCCc1ccc(NC(=O)N[C@@H](CC)CCl)cc1` [Example 11], for which the C50/G50 was 1.58. The value for `CC[C@H](CCl)NC(=O)Nc1ccc(C2CCCCC2)cc1` [Example 12] was 1.68; that for `CC[C@@H](CCl)NC(=O)Nc1ccc(C2CCCCC2)cc1` [Example 13] was 2.35.
